PubChem BioAssay AID330 (DTP/NCI, 2004)
The list does not hold the whole screen: its compounds were picked by chemical class. Not every dose and run of a compound is shown. T/C gives the treated animals as a percentage of the vehicle group. Some doses have a count of surviving animals in place of a T/C: the source holds a T/C of zero for them, seemingly a mark for toxic or unscored doses. Some survivor counts are full or nearly so, which does not show that the dose was tolerated: the source hardly ever lists a survival T/C far under the control, and the zero likely stands for such cases as well. Counts of survivors are from the toxicity check (mostly the fifth day) where no day follows; animals may have died later. Schedule codes are those of the source, read here as Q, the interval in days (D) or hours (H), X, the number of doses. For survival time, the PubChem record calls one and a half times the control and up active, and a quarter to a half above the control has no call in these data; cut-offs in other NCI protocols can differ. Some T/C values are followed by the survivors on the day toxicity was checked, most often the fifth; where neither a count nor a note follows, no animal had died by that day. Some entries hold several experiments; the results are listed from low to high. Some entries show no survivor count and are marked so; the dose need not have been tolerated. Some metal complexes and salts are drawn in pieces, as in the source, so charges may not balance.

System: P388 leukemia ip, CD2F1 mice, survival T/C
Test: NCI In Vivo Anticancer Drug Screen. Data for tumor model P388 Leukemia (intraperitoneal) in CD2F1 (CDF1) mice
Conditions: T/C endpoint: median survival time, higher T/C = longer survival
[1] = dose: 100.0 mg/kg/injection, schedule: Q01DX009 (ip), vehicle: saline
[2] = dose: 100.0 mg/kg/injection, schedule: Q04DX003 (ip), vehicle: saline
[3] = dose: 200.0 mg/kg/injection, schedule: Q04DX003 (ip), vehicle: saline
[4] = dose: 400.0 mg/kg/injection, schedule: Q04DX003 (ip), vehicle: saline
[5] = dose: 60.0 mg/kg/injection, schedule: Q01DX005 (ip), vehicle: saline with Tween-80
[6] = dose: 120.0 mg/kg/injection, schedule: Q01DX005 (ip), vehicle: saline with Tween-80
[7] = dose: 240.0 mg/kg/injection, schedule: Q01DX005 (ip), vehicle: saline with Tween-80
[8] = dose: 5.0 mg/kg/injection, schedule: Q01DX009 (ip), vehicle: Klucel (hydroxypropylcellulose) (HPC)
[9] = dose: 1.56 mg/kg/injection, schedule: Q01DX009 (ip), vehicle: Klucel (hydroxypropylcellulose) (HPC)
[10] = dose: 3.13 mg/kg/injection, schedule: Q01DX009 (ip), vehicle: Klucel (hydroxypropylcellulose) (HPC)

CCOP(=O)(O)CC.[U]
T/C (dose: 50.0 mg/kg/injection, schedule: Q01DX009 (ip), vehicle: saline with Tween-80): 87 [survivor count not shown] and 94 % of control [survivor count not shown]

CCOC(=O)C(CCSC)NC(=O)OCCNCCCl (stereo not drawn)
T/C (dose: 12.5 mg/kg/injection, schedule: Q01DX009 (ip), vehicle: saline): 145 % of control | T/C (dose: 22.0 mg/kg/injection, schedule: Q01DX009 (ip), vehicle: saline): 127 % of control | T/C (dose: 25.0 mg/kg/injection, schedule: Q01DX009 (ip), vehicle: saline): 127 % of control | T/C (dose: 33.0 mg/kg/injection, schedule: Q01DX009 (ip), vehicle: saline): 131 % of control | T/C (dose: 50.0 mg/kg/injection, schedule: Q01DX009 (ip), vehicle: saline): 131 and 159 % of control | T/C (dose: 75.0 mg/kg/injection, schedule: Q01DX009 (ip), vehicle: saline): 145 % of control | survivor count [1]: 3 of 6 | T/C (dose: 100.0 mg/kg/injection, schedule: Q04DX003 (ip), vehicle: saline with Tween-80): 122 % of control | survivor count (dose: 200.0 mg/kg/injection, schedule: Q04DX003 (ip), vehicle: saline with Tween-80): 3 of 6 | survivor count (dose: 400.0 mg/kg/injection, schedule: Q04DX003 (ip), vehicle: saline with Tween-80): 0 of 6

N/C(=N\P(=O)(O)O)Nc1ccccc1
T/C [2]: 89 % of control | T/C [3]: 102 % of control | survivor count [4]: 3 of 6

O=[N+]([O-])C(F)(COC(=S)OCC(F)([N+](=O)[O-])[N+](=O)[O-])[N+](=O)[O-]
T/C [2]: 98 % of control | T/C [3]: 98 % of control | T/C [4]: 100 % of control

CC(C)([N+](=O)[O-])C(C)([N+](=O)[O-])[N+](=O)[O-]
T/C (dose: 15.0 mg/kg/injection, schedule: Q01DX005 (ip), vehicle: saline with Tween-80): 100 % of control | T/C (dose: 30.0 mg/kg/injection, schedule: Q01DX005 (ip), vehicle: saline with Tween-80): 100 % of control | T/C [5]: 91 [5 of 6 alive] and 104 % of control | survivor count [6]: 0 of 6 | survivor count [7]: 0 of 6

CN([PH+](F)F)[PH+](F)F.CN([PH+](F)F)[PH+](F)F.CN([PH+](F)F)[PH+](F)F.[Cr]
T/C (dose: 100.0 mg/kg/injection, schedule: Q01DX001 (ip), vehicle: Klucel (hydroxypropylcellulose) (HPC)): 101 % of control | T/C (dose: 200.0 mg/kg/injection, schedule: Q01DX001 (ip), vehicle: Klucel (hydroxypropylcellulose) (HPC)): 101 % of control | T/C (dose: 400.0 mg/kg/injection, schedule: Q01DX001 (ip), vehicle: Klucel (hydroxypropylcellulose) (HPC)): 103 % of control

CN(c1ccc(/C=C/c2ccccc2)cc1)P(=O)(Cl)Cl
T/C (dose: 12.5 mg/kg/injection, schedule: Q04DX003 (ip), vehicle: saline): 106 % of control | T/C (dose: 25.0 mg/kg/injection, schedule: Q04DX003 (ip), vehicle: saline): 101 % of control | T/C (dose: 50.0 mg/kg/injection, schedule: Q04DX003 (ip), vehicle: saline): 112 % of control

COc1cccc(OC)c1N(CCCl)CCCl
T/C (dose: 0.62 mg/kg/injection, schedule: Q01DX009 (ip), vehicle: Klucel (hydroxypropylcellulose) (HPC)): 131 % of control | T/C (dose: 1.25 mg/kg/injection, schedule: Q01DX009 (ip), vehicle: Klucel (hydroxypropylcellulose) (HPC)): 88 and 135 % of control | T/C (dose: 2.5 mg/kg/injection, schedule: Q01DX009 (ip), vehicle: Klucel (hydroxypropylcellulose) (HPC)): 146 and 207 % of control [5 of 6 alive] | T/C [8]: 94 % of control | survivor count [8]: 6 of 6 | survivor count (dose: 10.0 mg/kg/injection, schedule: Q01DX009 (ip), vehicle: Klucel (hydroxypropylcellulose) (HPC)): 6 of 6

O=[N+]([O-])C(F)(COCOCC(F)([N+](=O)[O-])[N+](=O)[O-])[N+](=O)[O-]
T/C [1]: 106 % of control | T/C (dose: 200.0 mg/kg/injection, schedule: Q01DX009 (ip), vehicle: saline): 111 % of control | T/C (dose: 400.0 mg/kg/injection, schedule: Q01DX009 (ip), vehicle: saline): 116 % of control

CN1CCCCC1c1ccccc1.O=[N+]([O-])c1cc([N+](=O)[O-])c(O)c([N+](=O)[O-])c1
T/C (dose: 25.0 mg/kg/injection, schedule: Q01DX005 (ip), vehicle: Klucel (hydroxypropylcellulose) (HPC)): 98 % of control | T/C (dose: 50.0 mg/kg/injection, schedule: Q01DX005 (ip), vehicle: Klucel (hydroxypropylcellulose) (HPC)): 97 % of control | T/C (dose: 100.0 mg/kg/injection, schedule: Q01DX005 (ip), vehicle: Klucel (hydroxypropylcellulose) (HPC)): 90 % of control | survivor count (dose: 200.0 mg/kg/injection, schedule: Q01DX005 (ip), vehicle: Klucel (hydroxypropylcellulose) (HPC)): 0 of 6

COC(=O)c1ccc(N2CCOP2(=O)Cl)cc1O (stereo not drawn)
T/C (dose: 100.0 mg/kg/injection, schedule: Q01DX009 (ip), vehicle: saline with Tween-80): 95 % of control | T/C (dose: 200.0 mg/kg/injection, schedule: Q01DX009 (ip), vehicle: saline with Tween-80): 106 % of control [5 of 6 alive] | survivor count (dose: 400.0 mg/kg/injection, schedule: Q01DX009 (ip), vehicle: saline with Tween-80): 0 of 6

BrCc1ccccc1.Brc1cccnc1
T/C (dose: 6.25 mg/kg/injection, schedule: Q01DX005 (ip), vehicle: saline): 101 % of control | T/C (dose: 12.5 mg/kg/injection, schedule: Q01DX005 (ip), vehicle: saline): 96 % of control | T/C (dose: 25.0 mg/kg/injection, schedule: Q01DX005 (ip), vehicle: saline): 99 % of control | survivor count (dose: 50.0 mg/kg/injection, schedule: Q01DX005 (ip), vehicle: saline with Tween-80): 1 of 6 | survivor count (dose: 100.0 mg/kg/injection, schedule: Q01DX005 (ip), vehicle: saline with Tween-80): 0 of 6 | survivor count (dose: 200.0 mg/kg/injection, schedule: Q01DX005 (ip), vehicle: saline with Tween-80): 0 of 6

BrCCN(CCBr)c1cccc2ccccc12
T/C (dose: 0.39 mg/kg/injection, schedule: Q01DX009 (ip), vehicle: Klucel (hydroxypropylcellulose) (HPC)): 127 % of control | T/C (dose: 0.78 mg/kg/injection, schedule: Q01DX009 (ip), vehicle: Klucel (hydroxypropylcellulose) (HPC)): 144 and 176 % of control | T/C [9]: 152 % of control | survivor count [9]: 0 of 6 | T/C [10]: 186 % of control | survivor count [10]: 6 of 6 | T/C (dose: 6.25 mg/kg/injection, schedule: Q01DX009 (ip), vehicle: Klucel (hydroxypropylcellulose) (HPC)): 100 % of control | survivor count (dose: 12.5 mg/kg/injection, schedule: Q01DX009 (ip), vehicle: Klucel (hydroxypropylcellulose) (HPC)): 6 of 6 | survivor count (dose: 25.0 mg/kg/injection, schedule: Q01DX009 (ip), vehicle: Klucel (hydroxypropylcellulose) (HPC)): 2 of 6 | survivor count (dose: 50.0 mg/kg/injection, schedule: Q01DX009 (ip), vehicle: Klucel (hydroxypropylcellulose) (HPC)): 6 of 6 | survivor count (dose: 100.0 mg/kg/injection, schedule: Q01DX009 (ip), vehicle: Klucel (hydroxypropylcellulose) (HPC)): 4 of 6 | survivor count (dose: 200.0 mg/kg/injection, schedule: Q01DX009 (ip), vehicle: Klucel (hydroxypropylcellulose) (HPC)): 0 of 6

CN1C(=O)N(C)P(=O)(c2ccccc2)P1c1ccccc1 (stereo not drawn)
T/C [5]: 99 % of control | T/C [6]: 105 % of control | T/C [7]: 116 % of control

O=[N+]([O-])CCC([N+](=O)[O-])([N+](=O)[O-])[N+](=O)[O-]
T/C [2]: 90 % of control [5 of 6 alive] | T/C [3]: 92 % of control | T/C [4]: 92 % of control

CC(=O)OCC#CC[N+]1([O-])CCC(C)CC1 (stereo not drawn)
T/C (dose: 25.0 mg/kg/injection, schedule: Q04DX002 (ip), vehicle: saline): 107 % of control | T/C (dose: 50.0 mg/kg/injection, schedule: Q04DX002 (ip), vehicle: saline): 100 % of control | T/C (dose: 100.0 mg/kg/injection, schedule: Q04DX002 (ip), vehicle: saline): 98 [5 of 6 alive] and 112 % of control | survivor count (dose: 200.0 mg/kg/injection, schedule: Q04DX002 (ip), vehicle: saline): 0 of 6 | survivor count (dose: 400.0 mg/kg/injection, schedule: Q04DX002 (ip), vehicle: saline): 1 of 6
